Laboratory results from publication PMC4474807.
No constants are given. Whether binding was seen depends on the method and setting. Binding seen in cells or lysates may run through a third protein. Some results given as binding are weak or reduced against the parent protein; the word gives no strength.

Chains of the proteins cited; added tags and fusions are not shown.
UniProt Q07157: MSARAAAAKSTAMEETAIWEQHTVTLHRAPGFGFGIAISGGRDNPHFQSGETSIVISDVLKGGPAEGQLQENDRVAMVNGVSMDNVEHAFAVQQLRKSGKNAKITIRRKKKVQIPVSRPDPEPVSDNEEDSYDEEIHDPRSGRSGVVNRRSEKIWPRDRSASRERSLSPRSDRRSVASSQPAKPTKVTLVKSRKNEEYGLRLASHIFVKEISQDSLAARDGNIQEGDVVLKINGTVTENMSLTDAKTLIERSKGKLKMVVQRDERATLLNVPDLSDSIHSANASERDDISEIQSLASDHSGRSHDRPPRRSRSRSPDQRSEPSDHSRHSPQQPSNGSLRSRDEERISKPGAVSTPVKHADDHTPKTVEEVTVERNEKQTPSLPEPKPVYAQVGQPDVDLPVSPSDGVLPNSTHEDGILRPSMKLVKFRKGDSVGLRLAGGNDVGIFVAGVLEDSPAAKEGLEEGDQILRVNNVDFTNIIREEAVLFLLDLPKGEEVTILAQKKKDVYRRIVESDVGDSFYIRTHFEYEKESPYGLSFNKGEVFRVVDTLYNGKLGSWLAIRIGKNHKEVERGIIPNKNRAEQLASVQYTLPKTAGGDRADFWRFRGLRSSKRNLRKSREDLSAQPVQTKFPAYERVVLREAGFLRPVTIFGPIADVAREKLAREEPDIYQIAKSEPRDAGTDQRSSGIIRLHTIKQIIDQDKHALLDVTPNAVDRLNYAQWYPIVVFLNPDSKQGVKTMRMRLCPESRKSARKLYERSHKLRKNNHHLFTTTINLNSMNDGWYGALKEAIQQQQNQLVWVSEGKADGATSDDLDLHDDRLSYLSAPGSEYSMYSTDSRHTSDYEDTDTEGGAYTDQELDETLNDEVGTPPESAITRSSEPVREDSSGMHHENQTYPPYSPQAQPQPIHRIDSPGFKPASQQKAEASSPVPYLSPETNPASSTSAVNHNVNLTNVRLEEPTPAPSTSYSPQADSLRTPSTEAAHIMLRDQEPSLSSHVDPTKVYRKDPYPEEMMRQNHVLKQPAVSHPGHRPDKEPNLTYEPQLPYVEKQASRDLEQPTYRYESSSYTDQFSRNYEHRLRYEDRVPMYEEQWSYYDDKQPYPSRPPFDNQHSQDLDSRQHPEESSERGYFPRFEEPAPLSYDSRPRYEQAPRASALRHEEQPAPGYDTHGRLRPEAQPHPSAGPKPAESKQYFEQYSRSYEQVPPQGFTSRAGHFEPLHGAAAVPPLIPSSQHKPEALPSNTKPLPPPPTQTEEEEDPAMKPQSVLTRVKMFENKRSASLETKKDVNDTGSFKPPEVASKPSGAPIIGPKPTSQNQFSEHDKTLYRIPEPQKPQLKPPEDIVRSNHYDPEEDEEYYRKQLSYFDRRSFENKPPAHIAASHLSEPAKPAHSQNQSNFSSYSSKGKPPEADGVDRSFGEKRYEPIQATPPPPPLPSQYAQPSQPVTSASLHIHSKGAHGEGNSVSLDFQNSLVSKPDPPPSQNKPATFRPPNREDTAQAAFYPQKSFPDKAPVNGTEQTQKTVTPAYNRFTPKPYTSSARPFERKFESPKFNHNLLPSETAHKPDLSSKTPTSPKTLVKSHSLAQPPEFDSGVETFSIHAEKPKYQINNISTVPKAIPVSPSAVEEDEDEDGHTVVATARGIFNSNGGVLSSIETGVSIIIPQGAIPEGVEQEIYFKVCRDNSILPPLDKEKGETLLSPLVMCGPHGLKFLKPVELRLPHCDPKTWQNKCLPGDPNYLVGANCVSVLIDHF

B1: Occludin (protein, UniProt Q16625 1-522)
chain: MSSRPLESPPPYRPDEFKPNHYAPSNDIYGGEMHVRPMLSQPAYSFYPEDEILHFYKWTSPPGVIRILSMLIIVMCIAIFACVASTLAWDRGYGTSLLGGSVGYPYGGSGFGSYGSGYGYGYGYGYGYGGYTDPRAAKGFMLAMAAFCFIAALVIFVTSVIRSEMSRTRRYYLSVIIVSAILGIMVFIATIVYIMGVNPTAQSSGSLYGSQIYALCNQFYTPAATGLYVDQYLYHYCVVDPQEAIAIVLGFMIIVAFALIIFFAVKTRRKMDRYDKSNILWDKEHIYDEQPPNVEEWVKNVSAGTQDVPSPPSDYVERVDSPMAYSSNGKVNDKRFYPESSYKSTPVPEVVQELPLTSPVDDFRQPRYSSGGNFETPSKRAPAKGRAGRSKRTEQDHYETDYTTGGESCDELEEDWIREYPPITSDQQRQLYKRNFDTGLQEYKSLQSELDEINKELSRLDKELDDYREESEEYMAAADEYNRLKQVKGSADYKSKKNHCKQLKSKLSHIKKMVGDYDRQKT

How the values were obtained:
[1] = target: T1, Occludin (human (endogenous in HBMECs)) (UniProt Q16625); assay: co-IP; endogenous proteins from HBMEC lysates in modified RIPA buffer (50 mM Tris-HCl pH 7.5, 150 mM NaCl, 1 mM EDTA, 0.5% sodium deoxycholate, 1% Triton X-100, 0.1% SDS); 350 ug total protein with 2.5 ug anti-ZO-1 or anti-Occludin antibody overnight at 4 C, protein A/G agarose beads; cells untreated, treated with 100 nM thrombin for different times, or pretreated with Ang-1 (100 ng/ml, 15 min) before thrombin; also after scramble or PTPN-2 siRNA
T1 sequence: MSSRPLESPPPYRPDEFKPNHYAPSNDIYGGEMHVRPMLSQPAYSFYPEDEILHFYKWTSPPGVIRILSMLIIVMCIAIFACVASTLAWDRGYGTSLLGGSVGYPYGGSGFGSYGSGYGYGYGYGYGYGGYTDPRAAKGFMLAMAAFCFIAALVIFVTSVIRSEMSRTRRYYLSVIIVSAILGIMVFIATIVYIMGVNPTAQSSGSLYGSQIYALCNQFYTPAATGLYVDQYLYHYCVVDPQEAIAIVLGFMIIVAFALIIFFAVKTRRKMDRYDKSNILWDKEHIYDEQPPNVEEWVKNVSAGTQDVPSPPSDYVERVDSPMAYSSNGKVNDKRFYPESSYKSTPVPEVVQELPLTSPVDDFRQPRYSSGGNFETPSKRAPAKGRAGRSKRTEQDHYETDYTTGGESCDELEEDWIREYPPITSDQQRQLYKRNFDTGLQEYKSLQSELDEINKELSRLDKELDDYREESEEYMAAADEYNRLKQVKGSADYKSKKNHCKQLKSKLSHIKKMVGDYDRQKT

[2] = target: Zona Occludens-1 (ZO-1) (human (endogenous in HBMECs)) (UniProt Q07157); assay: as above

| binding [1] | binding [2] | Molecule |
| --- | --- | --- |
| binds | – | Zona Occludens-1 (ZO-1) (from UniProt Q07157 1-1748) |
| – | binds | B1 |
